No constants are given. Whether binding was seen depends on the method and setting. Binding seen in cells or lysates may run through a third protein. Some binding calls cover weakened binding; strength is not graded here.
Target: Ten-eleven translocation 2 (TET2) (human (in HaCaT cells; endogenous or transfected not stated)) (UniProt Q6N021)
Assay: co-IP; coimmunoprecipitation in HaCaT cells, with and without ectopic expression of the lncRNA TETILA; bait not stated

Sequences of proteins named here, by UniProt entry; tags and fusion partners are left off.
UniProt Q13569: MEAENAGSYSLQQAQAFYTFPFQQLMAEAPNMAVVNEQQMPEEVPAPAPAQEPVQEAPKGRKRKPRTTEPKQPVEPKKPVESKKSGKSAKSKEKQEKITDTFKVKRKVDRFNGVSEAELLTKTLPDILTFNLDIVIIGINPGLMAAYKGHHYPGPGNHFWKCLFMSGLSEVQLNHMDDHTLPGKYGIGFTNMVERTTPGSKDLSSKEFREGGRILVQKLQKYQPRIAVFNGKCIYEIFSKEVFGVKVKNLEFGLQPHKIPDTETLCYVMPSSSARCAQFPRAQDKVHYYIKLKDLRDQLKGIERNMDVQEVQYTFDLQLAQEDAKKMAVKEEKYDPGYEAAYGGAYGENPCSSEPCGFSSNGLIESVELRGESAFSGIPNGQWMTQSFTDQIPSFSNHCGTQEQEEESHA

## thymine-DNA glycosylase (TDG) (from UniProt Q13569 1-410) (enzyme)
  binding: binds
